Source: US20170267986A1, “GENERATION OF MANNOSE-6-PHOSPHATE CONTAINING RECOMBINANT ALPHA-N-ACETYL GLUCOSAMINIDASE” (SHIRE HUMAN GENETIC THERAPIES, INC., priority 2014, published 2017)

B1: rhNaglu: recombinant human alpha-N-acetyl-glucosaminidase purified from human fibrosarcoma HT1080 cells engineered to over-express it (protein)
chain: DEAREAAAVRALVARLLGPGPAADFSVSVERALAAKPGLDTYSLGGGGAARVRVRGSTGVAAAAGLHRYLRDFCGCHVAWSGSQLRLPRPLPAVPGELTEATPNRYRYYQNVCTQSYSFVWWDWARWEREIDWMALNGINLALAWSGQEAIWQRVYLALGLTQAEINEFFTGPAFLAWGRMGNLHTWDGPLPPSWHIKQLYLQHRVLDQMRSFGMTPVLPAFAGHVPEAVTRVFPQVNVTKMGSWGHFNCSYSCSFLLAPEDPIFPIIGSLFLRELIKEFGTDHIYGADTFNEMQPPSSEPSYLAAATTAVYEAMTAVDTEAVWLLQGWLFQHQPQFWGPAQIRAVLGAVPRGRLLVLDLFAESQPVYTRTASFQGQPFIWCMLHNFGGNHGLFGALEAVNGGPEAARLFPNSTMVGTGMAPEGISQNEVVYSLMAELGWRKDPVPDLAAWVTSFAARRYGVSHPDAGAAWRLLLRSVYNCSGEACRGHNRSPLVRRPSLQMNTSIWYNRSDVFEAWRLLLTSAPSLATSPAFRYDLLDLTRQAVQELVSLYYEEARSAYLSKELASLLRAGGVLAYELLPALDEVLASDSRFLLGSWLEQARAAAVSEAEADFYEQNSRYQLTLWGPEGNILDYANKQLAGLVANYYTPRWRLFLEALVDSVAQGIPFQQHQFDKNVFQLEQAFVLSKQRYPSQPRGDTVDLAKKIFLKYYPRWVAGSW
B2: Naglu-Kif: high-mannose-containing recombinant human Naglu purified from HT1080 cells grown with 2 mg/l Kifunensine; tested after sGNPT modification (protein)
chain: B1 chain
B3: rhArylsulfatase A: another recombinant lysosomal enzyme produced in the same cell type as rhNaglu (protein, UniProt P15289 19-507, looked up)
Arylsulfatase A: RPPNIVLIFADDLGYGDLGCYGHPSSTTPNLDQLAAGGLRFTDFYVPVSLCTPSRAALLTGRLPVRMGMYPGVLVPSSRGGLPLEEVTVAEVLAARGYLTGMAGKWHLGVGPEGAFLPPHQGFHRFLGIPYSHDQGPCQNLTCFPPATPCDGGCDQGLVPIPLLANLSVEAQPPWLPGLEARYMAFAHDLMADAQRQDRPFFLYYASHHTHYPQFSGQSFAERSGRGPFGDSLMELDAAVGTLMTAIGDLGLLEETLVIFTADNGPETMRMSRGGCSGLLRCGKGTTYEGGVREPALAFWPGHIAPGVTHELASSLDLLPTLAALAGAPLPNVTLDGFDLSPLLLGTGKSPRQSLFFYPSYPDEVRGVFAVRTGKYKAHFFTQGSAHSDTTADPACHASSSLTAHEPPLLYDLSKDPGENYNLLGGVAGATPEVLQALKQLQLLKAQLDAAVTFGPSQVARGEDPALQICCHPGCTPRPACCHCPDPHA

Tests used:
[1] = Analysis of glycan structure by HI-UHPLC of 2-AB labeled N-glycans with exoglycosidase array; details: share of glycan peak areas
[2] = Mannose-6-phosphate monosaccharide quantitation by PAD-HPLC after sGNPT modification

Molecule | relative abundance of bi-antennary glycans (A2) [1] | relative abundance of high-mannose glycans (A0) [1] | relative abundance of tetra-antennary glycans (A4) [1] | molar ratio pmol M6P/pmol Naglu Kif ([2]; +35 ug GNPT, 50 mM Sodium Acetate pH 6.5, 20 mM MnCl2) | molar ratio pmol M6P/pmol Naglu Kif ([2]; +70 ug GNPT, 50 mM Sodium Acetate pH 6.5, 20 mM MnCl2) | molar ratio pmol M6P/pmol Naglu Kif ([2]; +70 ug GNPT, 50 mM Tris pH 7.4, 10 mM MnC2, 10 mm MgCl2) | molar ratio pmol M6P/pmol Naglu Kif ([2]; +140 ug GNPT, 50 mM Sodium Acetate pH 6.5, 20 mM MnCl2)
B1 | 33% | 0% | 45% | – | – | – | –
B2 | – | – | – | below the detection threshold | 0.12 pmol M6P/pmol Naglu Kif | 1.45 pmol M6P/pmol Naglu Kif | 0.64 pmol M6P/pmol Naglu Kif
B3 | – | 40% | – | – | – | – | –
